Paper PMC10301970
Results are given in words; binding and its absence hold for the method and conditions named. Binding seen in cells or lysates may run through a third protein. These calls come from enrichment with a bait or labelling near it, and not all partners need be listed. For some assays here: Tags and fused reporters may be left off the sequences shown.

T1: FLAG-tagged Set1 (C. deneoformans) (C. deneoformans) (UniProt P0CO26)
T1 sequence: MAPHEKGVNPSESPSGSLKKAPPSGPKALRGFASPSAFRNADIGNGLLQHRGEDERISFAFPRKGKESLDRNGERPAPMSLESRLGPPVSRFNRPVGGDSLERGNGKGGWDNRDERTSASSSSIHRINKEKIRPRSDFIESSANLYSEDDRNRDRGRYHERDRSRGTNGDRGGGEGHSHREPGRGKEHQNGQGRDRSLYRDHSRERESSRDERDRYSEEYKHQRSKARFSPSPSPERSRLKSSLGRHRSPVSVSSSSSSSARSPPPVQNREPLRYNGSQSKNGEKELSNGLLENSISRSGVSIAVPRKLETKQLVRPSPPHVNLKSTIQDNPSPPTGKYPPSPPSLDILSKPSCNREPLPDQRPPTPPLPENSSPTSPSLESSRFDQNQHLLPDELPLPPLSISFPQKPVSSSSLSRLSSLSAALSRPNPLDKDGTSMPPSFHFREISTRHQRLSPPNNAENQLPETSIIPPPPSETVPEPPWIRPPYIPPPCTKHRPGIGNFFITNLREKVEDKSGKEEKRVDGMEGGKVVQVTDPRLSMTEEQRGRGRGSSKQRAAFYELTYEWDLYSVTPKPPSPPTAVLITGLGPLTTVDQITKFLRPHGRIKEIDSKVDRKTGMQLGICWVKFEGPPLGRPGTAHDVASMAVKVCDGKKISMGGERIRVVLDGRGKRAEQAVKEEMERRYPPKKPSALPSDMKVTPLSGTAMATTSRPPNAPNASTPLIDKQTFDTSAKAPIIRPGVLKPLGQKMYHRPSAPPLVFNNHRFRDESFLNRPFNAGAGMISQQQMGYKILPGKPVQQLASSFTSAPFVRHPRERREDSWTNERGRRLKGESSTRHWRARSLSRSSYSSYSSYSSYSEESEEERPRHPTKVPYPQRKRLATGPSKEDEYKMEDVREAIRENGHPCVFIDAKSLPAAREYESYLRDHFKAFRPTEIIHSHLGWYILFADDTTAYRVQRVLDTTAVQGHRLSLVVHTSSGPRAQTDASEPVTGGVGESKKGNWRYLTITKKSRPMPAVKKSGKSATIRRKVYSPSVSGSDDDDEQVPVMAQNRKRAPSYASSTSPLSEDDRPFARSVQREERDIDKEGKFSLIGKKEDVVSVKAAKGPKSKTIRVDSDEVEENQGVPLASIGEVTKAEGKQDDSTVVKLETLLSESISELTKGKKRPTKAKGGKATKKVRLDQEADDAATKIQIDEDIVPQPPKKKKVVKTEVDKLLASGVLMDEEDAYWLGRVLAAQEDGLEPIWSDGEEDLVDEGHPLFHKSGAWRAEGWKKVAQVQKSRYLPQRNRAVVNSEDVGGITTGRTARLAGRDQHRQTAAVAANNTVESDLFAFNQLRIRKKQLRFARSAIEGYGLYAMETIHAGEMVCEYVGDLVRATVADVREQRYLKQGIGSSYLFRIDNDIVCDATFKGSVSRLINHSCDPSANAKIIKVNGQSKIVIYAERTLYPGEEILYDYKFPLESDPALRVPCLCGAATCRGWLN


How the values were obtained:
Assay in all cases: affinity purification with mass spectrometry; whole-cell extracts of C. deneoformans strains expressing a FLAG-tagged bait, grown overnight in liquid YPD at 30 °C; incubated with FLAG-trap (Sigma); eluate on SDS-PAGE, digested, analysed by MS
[1] = target: T1, FLAG-tagged Set1 (C. deneoformans) (C. deneoformans)
[2] = target: FLAG-tagged Bre2 (C. deneoformans) (C. deneoformans)
[3] = target: FLAG-tagged Swd1 (C. deneoformans) (C. deneoformans)
[4] = target: FLAG-tagged Swd3 (C. deneoformans) (C. deneoformans)

Molecule	binding [1]	other results
Bre2 (C. deneoformans, endogenous)	binds	
Spp101 (C. deneoformans, endogenous)	binds	
Swd2 (C. deneoformans, endogenous)	binds	
Set1 (C. deneoformans, endogenous) (protein, UniProt P0CO26 1-1483) MAPHEKGVNPSESPSGSLKKAPPSGPKALRGFASPSAFRNADIGNGLLQHRGEDERISFAFPRKGKESLDRNGERPAPMSLESRLGPPVSRFNRPVGGDSLERGNGKGGWDNRDERTSASSSSIHRINKEKIRPRSDFIESSANLYSEDDRNRDRGRYHERDRSRGTNGDRGGGEGHSHREPGRGKEHQNGQGRDRSLYRDHSRERESSRDERDRYSEEYKHQRSKARFSPSPSPERSRLKSSLGRHRSPVSVSSSSSSSARSPPPVQNREPLRYNGSQSKNGEKELSNGLLENSISRSGVSIAVPRKLETKQLVRPSPPHVNLKSTIQDNPSPPTGKYPPSPPSLDILSKPSCNREPLPDQRPPTPPLPENSSPTSPSLESSRFDQNQHLLPDELPLPPLSISFPQKPVSSSSLSRLSSLSAALSRPNPLDKDGTSMPPSFHFREISTRHQRLSPPNNAENQLPETSIIPPPPSETVPEPPWIRPPYIPPPCTKHRPGIGNFFITNLREKVEDKSGKEEKRVDGMEGGKVVQVTDPRLSMTEEQRGRGRGSSKQRAAFYELTYEWDLYSVTPKPPSPPTAVLITGLGPLTTVDQITKFLRPHGRIKEIDSKVDRKTGMQLGICWVKFEGPPLGRPGTAHDVASMAVKVCDGKKISMGGERIRVVLDGRGKRAEQAVKEEMERRYPPKKPSALPSDMKVTPLSGTAMATTSRPPNAPNASTPLIDKQTFDTSAKAPIIRPGVLKPLGQKMYHRPSAPPLVFNNHRFRDESFLNRPFNAGAGMISQQQMGYKILPGKPVQQLASSFTSAPFVRHPRERREDSWTNERGRRLKGESSTRHWRARSLSRSSYSSYSSYSSYSEESEEERPRHPTKVPYPQRKRLATGPSKEDEYKMEDVREAIRENGHPCVFIDAKSLPAAREYESYLRDHFKAFRPTEIIHSHLGWYILFADDTTAYRVQRVLDTTAVQGHRLSLVVHTSSGPRAQTDASEPVTGGVGESKKGNWRYLTITKKSRPMPAVKKSGKSATIRRKVYSPSVSGSDDDDEQVPVMAQNRKRAPSYASSTSPLSEDDRPFARSVQREERDIDKEGKFSLIGKKEDVVSVKAAKGPKSKTIRVDSDEVEENQGVPLASIGEVTKAEGKQDDSTVVKLETLLSESISELTKGKKRPTKAKGGKATKKVRLDQEADDAATKIQIDEDIVPQPPKKKKVVKTEVDKLLASGVLMDEEDAYWLGRVLAAQEDGLEPIWSDGEEDLVDEGHPLFHKSGAWRAEGWKKVAQVQKSRYLPQRNRAVVNSEDVGGITTGRTARLAGRDQHRQTAAVAANNTVESDLFAFNQLRIRKKQLRFARSAIEGYGLYAMETIHAGEMVCEYVGDLVRATVADVREQRYLKQGIGSSYLFRIDNDIVCDATFKGSVSRLINHSCDPSANAKIIKVNGQSKIVIYAERTLYPGEEILYDYKFPLESDPALRVPCLCGAATCRGWLN		binding [2]: binds; binding [3]: binds; binding [4]: binds

Now from value to molecule, other results behind:

binding [1]	Molecule	other results
binds	Swd1 (C. deneoformans, endogenous)	
binds	Swd3 (C. deneoformans, endogenous)	
